Among the data in publication PMC6805484 are binding values, retold here.

By UniProt entry, the sequences of proteins in these tests, tags left out.
UniProt P11940: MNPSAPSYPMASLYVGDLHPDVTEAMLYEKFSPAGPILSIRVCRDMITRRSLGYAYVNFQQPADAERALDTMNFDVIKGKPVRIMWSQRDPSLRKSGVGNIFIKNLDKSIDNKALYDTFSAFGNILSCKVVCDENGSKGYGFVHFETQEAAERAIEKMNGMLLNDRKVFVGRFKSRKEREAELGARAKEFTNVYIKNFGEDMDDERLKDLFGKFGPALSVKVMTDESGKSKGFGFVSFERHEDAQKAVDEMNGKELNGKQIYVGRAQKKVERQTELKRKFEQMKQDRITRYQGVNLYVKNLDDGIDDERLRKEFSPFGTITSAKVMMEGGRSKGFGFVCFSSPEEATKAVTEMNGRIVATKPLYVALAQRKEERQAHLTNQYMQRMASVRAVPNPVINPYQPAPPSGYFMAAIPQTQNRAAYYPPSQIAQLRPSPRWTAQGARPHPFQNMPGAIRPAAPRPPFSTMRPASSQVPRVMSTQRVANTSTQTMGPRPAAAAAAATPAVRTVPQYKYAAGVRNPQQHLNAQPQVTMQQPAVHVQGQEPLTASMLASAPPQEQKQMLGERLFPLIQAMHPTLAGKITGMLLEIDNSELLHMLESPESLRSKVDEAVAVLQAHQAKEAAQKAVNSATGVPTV

Positions count from the first letter of the chain named. Results are given in words; binding and its absence hold for the method and conditions named. In cells and extracts the contact can be indirect. Some results given as binding are weak or reduced against the parent protein; the word gives no strength. Where a sequence is shown, tags or fusion partners need not be part of it.

Assay [1] has as its target T1, GFP-MKRN1^RINGmut (H307E, ligase-dead) (human) (UniProt Q9UHC7).
T1 sequence: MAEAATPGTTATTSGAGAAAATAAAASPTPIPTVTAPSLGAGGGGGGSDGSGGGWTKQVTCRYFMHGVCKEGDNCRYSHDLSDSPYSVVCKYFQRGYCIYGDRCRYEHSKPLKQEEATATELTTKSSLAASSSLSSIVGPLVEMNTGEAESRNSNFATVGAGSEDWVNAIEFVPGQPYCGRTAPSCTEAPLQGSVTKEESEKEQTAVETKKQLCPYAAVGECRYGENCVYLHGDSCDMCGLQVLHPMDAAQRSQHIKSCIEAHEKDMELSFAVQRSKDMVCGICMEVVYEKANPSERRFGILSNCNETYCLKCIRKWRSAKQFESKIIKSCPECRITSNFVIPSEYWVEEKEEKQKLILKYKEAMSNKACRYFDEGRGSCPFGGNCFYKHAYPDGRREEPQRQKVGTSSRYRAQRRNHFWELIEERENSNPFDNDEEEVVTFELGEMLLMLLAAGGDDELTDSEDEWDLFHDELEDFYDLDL
The assay is described as follows: co-IP; GFP-trap agarose beads with cleared lysates of HEK293T cells transiently expressing a GFP-tagged bait or GFP (empty vector); mRIPA buffer, 1 h at 4 °C, five washes; Western blot for the endogenous partner. Background: Immunoblotting shows a protein as a band on a membrane.

The target of assay [2] is T2, GFP-MKRN1^wt (Makorin Ring Finger Protein 1, wild type, N-terminally GFP-tagged) (human) (UniProt Q9UHC7).
T2 sequence: T1 sequence with E307H
Described as above.

As to “cytoplasmic poly(A)-binding protein PABPC1 (endogenous) (from UniProt P11940 1-636)”, the binding result in assay [1] and in assay [2] was “binds” throughout.
